# Source: PubChem BioAssay AID1224826 (NIAID, 2016)
# Screen: 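Regulators of Tlr4 signalling leading to Tnf-alpha expression in macrophages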 (primary screen)
# Cells: RAW264.7 G9 macrophages from mouse bearing reporters for p65 (GFP) and the Tnf promoter (mCherry)
# Reagent: siRNA pool against mouse genes, 100 nM
# Duration: 16 h of LPS stimulation, after 2 days of siRNA transfection
# Challenge: bacterial lipopolysaccharide (Salmonella minnesota R595), 10 ng/ml
# Measurement: 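Imaged Tnf reporter mCherry in nuclei, minus background, normalised per plate to the median and expressed as robust z-scores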
# Scale: Tnf reporter robust z-score: higher = stronger Tnf promoter reporter signal after LPS; Tnf reporter intensity: higher = stronger Tnf promoter reporter signal
# Call rule: 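Called active when robust z-score is at most -1.3, matching the median of the Tlr4 knock-down control, or over 3; control wells and wells with under 50 cells never active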
# Meaning of the calls: active = Tnf reporter clearly lowered or raised; inactive = no clear change in Tnf reporter
# This is one part, drawn at random, of about 17,000 deposited reagents. Over the whole deposit, about 1,110 (6.6%) were called active. 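Active means lowered or raised reporter signal; replicate intensities are raw and not normalised per plate.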 Entries without a mark were called inactive. Not all columns of the deposit are shown.
gene knocked down,Tnf reporter robust z-score,fewer than 50 cells in well,"Tnf reporter intensity, replicate 1"
Dhx58 (DExH-box helicase 58),0.92,enough cells in well,217
"Pigc (phosphatidylinositol glycan anchor biosynthesis, class C)",0.42,enough cells in well,136
Peak1 (pseudopodium-enriched atypical kinase 1),-0.39,enough cells in well,159
Arsk (arylsulfatase K),-0.07,enough cells in well,135
Cd274 (CD274 antigen),,fewer than 50 cells per well; well left out of calls,100
Rps6ka5 (ribosomal protein S6 kinase A5),-0.29,enough cells in well,151
"Col16a1 (collagen, type XVI, alpha 1)",1.13,enough cells in well,336
Or51a25 (olfactory receptor family 51 subfamily A member 25),,fewer than 50 cells per well; well left out of calls,49.8
Inpp1 (inositol polyphosphate-1-phosphatase),1.37,enough cells in well,363
Stap1 (signal transducing adaptor family member 1),-0.34,enough cells in well,165
Rabgap1l (RAB GTPase activating protein 1-like),0.35,enough cells in well,183
Hoxc9 (homeobox C9),1.09,enough cells in well,294
Micu1 (mitochondrial calcium uptake 1),0.51,enough cells in well,160
Kif4 (kinesin family member 4),-0.5,enough cells in well,219
Foxo6 (forkhead box O6),-0.53,enough cells in well,199
Rhbdl2 (rhomboid like 2),-0.87,enough cells in well,153
Tlr12 (toll-like receptor 12),,fewer than 50 cells per well; well left out of calls,80.5
Zscan22 (zinc finger and SCAN domain containing 22),1.21,enough cells in well,378
Pnpla8 (patatin-like phospholipase domain containing 8),0.38,enough cells in well,187
Hsdl1 (hydroxysteroid dehydrogenase like 1),,fewer than 50 cells per well; well left out of calls,128
Wdr77 (WD repeat domain 77),,fewer than 50 cells per well; well left out of calls,276
Fkbp11 (FK506 binding protein 11),1.08,enough cells in well,362
Robo1 (roundabout guidance receptor 1),-0.94,enough cells in well,249
Nnmt (nicotinamide N-methyltransferase),-0.18,enough cells in well,189
C2cd2 (C2 calcium-dependent domain containing 2),-0.83,enough cells in well,131
Mgat1 (mannoside acetylglucosaminyltransferase 1),0.05,enough cells in well,187
Metap1d (methionyl aminopeptidase type 1D (mitochondrial)),0.76,enough cells in well,200
"Clec11a (C-type lectin domain family 11, member a)",-0.04,enough cells in well,295
Fkbp5 (FK506 binding protein 5),-0.81,enough cells in well,193
"Rev3l (REV3 like, DNA directed polymerase zeta catalytic subunit)",-0.84,enough cells in well,176
Trem2 (triggering receptor expressed on myeloid cells 2),-0.46,enough cells in well,180
Rnf138 (ring finger protein 138),1.49,enough cells in well,246
Trim41 (tripartite motif-containing 41),-0.62,enough cells in well,93.1
Vmn1r148 (vomeronasal 1 receptor 148),1.04,enough cells in well,159
"Snapc5 (small nuclear RNA activating complex, polypeptide 5)",1.85,enough cells in well,173
Lrrk1 (leucine-rich repeat kinase 1),-0.27,enough cells in well,188
Bcas3 (BCAS3 microtubule associated cell migration factor),,fewer than 50 cells per well; well left out of calls,10.4
Chdh (choline dehydrogenase),-0.87,enough cells in well,122
Catsperb (cation channel sperm associated auxiliary subunit beta),2.53,enough cells in well,222
Tex56 (testis expressed 56),0.35,enough cells in well,211
"Tgm1 (transglutaminase 1, K polypeptide)",-0.47,enough cells in well,220
Tep1 (telomerase associated protein 1),0.98,enough cells in well,298
Fastkd3 (FAST kinase domains 3),,fewer than 50 cells per well; well left out of calls,187
Slc5a9,-0.79,enough cells in well,124
Trim24 (tripartite motif-containing 24),-0.31,enough cells in well,203
Rdh9 (retinol dehydrogenase 9),0.05,enough cells in well,156
Gabra2 (gamma-aminobutyric acid type A receptor subunit alpha 2),-0.09,enough cells in well,248
Cacna1a,-0.67,enough cells in well,119
Srp9 (signal recognition particle 9),-0.33,enough cells in well,80.7
Cartpt (CART prepropeptide),0.71,enough cells in well,185
"Atp1a2 (ATPase, Na+/K+ transporting, alpha 2 polypeptide)",0.09,enough cells in well,136
Unc119 (unc-119 lipid binding chaperone),-0.78,enough cells in well,165
Gnl1 (guanine nucleotide binding protein-like 1),1.1,enough cells in well,317
"Fancm (Fanconi anemia, complementation group M)",0.95,enough cells in well,103
Donson (downstream neighbor of SON),,fewer than 50 cells per well; well left out of calls,117
Prickle3 (prickle planar cell polarity protein 3),-0.75,enough cells in well,169
Lce1e (late cornified envelope 1E),2.12,enough cells in well,400
Surf2 (surfeit gene 2),,fewer than 50 cells per well; well left out of calls,48.6

3 entries already listed, ordered by “Tnf reporter robust z-score”, ascending:
gene knocked down,Tnf reporter robust z-score,fewer than 50 cells in well,"Tnf reporter intensity, replicate 1"
Fkbp5 (FK506 binding protein 5),-0.81,enough cells in well,193
"Clec11a (C-type lectin domain family 11, member a)",-0.04,enough cells in well,295
Metap1d (methionyl aminopeptidase type 1D (mitochondrial)),0.76,enough cells in well,200
